Results: article PMC6002264
These are yes or no findings as the source states them, for the method shown. In cells and extracts the contact can be indirect. Some entries that bind do so weakly or less than the wild type.

Protein sequences, listed by entry. Tags and fused reporters are not part of them.
UniProt Q8C7M3: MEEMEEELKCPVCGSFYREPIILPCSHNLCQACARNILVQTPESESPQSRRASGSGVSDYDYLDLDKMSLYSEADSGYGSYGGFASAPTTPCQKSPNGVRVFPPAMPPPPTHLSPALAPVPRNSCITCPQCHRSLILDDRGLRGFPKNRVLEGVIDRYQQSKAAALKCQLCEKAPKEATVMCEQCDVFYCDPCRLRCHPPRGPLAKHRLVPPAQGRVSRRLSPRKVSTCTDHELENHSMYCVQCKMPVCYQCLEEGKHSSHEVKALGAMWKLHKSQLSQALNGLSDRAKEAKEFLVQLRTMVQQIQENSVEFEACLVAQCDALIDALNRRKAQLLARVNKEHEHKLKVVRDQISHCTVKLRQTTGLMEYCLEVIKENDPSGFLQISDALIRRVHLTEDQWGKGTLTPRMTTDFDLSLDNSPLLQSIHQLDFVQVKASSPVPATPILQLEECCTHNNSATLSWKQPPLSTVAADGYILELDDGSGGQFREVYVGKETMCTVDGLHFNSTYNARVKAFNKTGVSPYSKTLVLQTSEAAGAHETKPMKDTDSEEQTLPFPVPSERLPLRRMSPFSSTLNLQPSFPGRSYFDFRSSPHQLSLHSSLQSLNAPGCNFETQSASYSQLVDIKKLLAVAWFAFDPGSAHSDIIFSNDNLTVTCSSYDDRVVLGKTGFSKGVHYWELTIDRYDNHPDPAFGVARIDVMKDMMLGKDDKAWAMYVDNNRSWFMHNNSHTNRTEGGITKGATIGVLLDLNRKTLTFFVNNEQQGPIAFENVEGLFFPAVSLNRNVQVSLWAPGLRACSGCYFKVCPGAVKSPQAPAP

Biological target: TRIM9 (endogenous, mouse) (mouse (endogenous in embryonic cortex)) (UniProt Q8C7M3)
Assay: co-IP; immunoprecipitation with the TRIM9 polyclonal antibody from wild-type mouse embryonic cortical / brain lysate; Trim9-/- lysate as control; blot probed for TRIM67

- binding: binds
B1: TRIM67 (endogenous, mouse) (protein, UniProt Q505D9 1-768)
chain: MEEELKCPVCGSLFREPIILPCSHNVCLPCARTIAVQTPDGEQHLPPPLLLSRGAAAAATPPDQDAAAGATSGGAGANTAGGLGGGATGGGDHADKLSLYSETDSGYGSYTPSLKSPNGVRVLPMVPAPPGSSAAAARGAACSSLCSSSSSITCPQCHRSASLDHRGLRGFQRNRLLEGIVQRYQQGRGVVPGAAAAPAVAICQLCDRTPPEPAATLCEQCDVLYCATCQLKCHPSRGPFAKHRLVQPPPPPTPPEATPAVTGTSTASSAGGCRSPGGAGASAPRKFPTCPEHEMENYSMYCVSCRSPVCYMCLEEGRHSKHEVKPLGATWKQHKAQLSQALNGVSDKAKEAKEFLVQLKNILQQIQENGLDYEACLVAQCDALVDALTRQKAKLLTKVTKEREHKLKMVWDQINHCTLKLRQSTGLMEYCLEVIKEDDPSGFLQISDALIKRVQTSQEQWVKGALEPKVSAEFDLTLDSEPLLQAIHQLDFVQMKLPPVPLLQLEKCCTRNNSVTLAWRTPPFTHSPAEGYILELDDGDGGQFREVYVGKETLCTIDGLHFNSTYNARVKAFNSSGVGPYSKTVVLQTSDVAWFTFDPNSGHRDIILSNDNQTATCSSYDDRVVLGTAAFSKGVHYWELHVDRYDNHPDPAFGVARASVVKDMMLGKDDKAWAMYVDNNRSWFMHCNSHTNRTEGGVCKGATVGVLLDLNKHTLTFFINGQQQGPTAFSHVDGVFMPALSLNRNVQVTLHTGLEVPTNLGRPKLSGN
